Source: patent US9717748B2, “Compositions and methods for treating an infection” (CMPD LICENSING, LLC, priority 2015, dated 2017)

Tested on: Mycoplasma pneumoniae
Test: Expected efficacy of antibiotic agents
Settings: Gram: n/a

O=C(O)c1cn(C2CC2)c2cc(N3CCNCC3)c(F)cc2c1=O [Ciprofloxacin]
Expected efficacy against Mycoplasma pneumoniae: yes
